From patent publication US20180099046A1
No constants are given. Whether binding was seen depends on the method and setting. Some entries that bind do so weakly or less than the wild type.

Protein sequences, listed by entry. Tags and fused reporters are not part of them. Residues count along the entry.
UniProt Q9BQB4, residues 24-213: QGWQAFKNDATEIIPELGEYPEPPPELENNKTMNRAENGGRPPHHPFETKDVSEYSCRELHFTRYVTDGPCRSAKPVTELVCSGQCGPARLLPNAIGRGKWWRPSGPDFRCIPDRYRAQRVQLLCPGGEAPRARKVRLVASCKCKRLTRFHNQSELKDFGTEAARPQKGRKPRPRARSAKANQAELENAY

Target: human sclerostin with a Flag tag (h-SOST-Flag) (human) (UniProt Q9BQB4)
Experiment: binding ELISA (Test Example 1)

B1: murine anti-human sclerostin monoclonal antibody Ab-1 (antibody, V domains shown)
VH: EVQLQQSGPELVKPGTSVKIPCQTSGYTFTDYNLDWLKQRPGESLEWIGDIDPNNGDILYNQKFRDKATLTVDTSSNTAYLELRSLTSEDTAVYYCARRWAYYFDYWGQGTTLTISS
VL: NIVMTQTPKLLFVSAGDRITITCKASQSVSNDVAWYQQKPGQSPKLLIYYTSNRFTGVPDRFTGSGYGTDFTLTINTVQAEDLAVYFCQQDYSSPVTFGAGTKLELK
How did the binding turn out when B1 was run?
Its binding is “binds”.
